Measured values reported in PMC4264851.

Protein sequences, listed by entry. Tags and fused reporters are not part of them.
UniProt P42945: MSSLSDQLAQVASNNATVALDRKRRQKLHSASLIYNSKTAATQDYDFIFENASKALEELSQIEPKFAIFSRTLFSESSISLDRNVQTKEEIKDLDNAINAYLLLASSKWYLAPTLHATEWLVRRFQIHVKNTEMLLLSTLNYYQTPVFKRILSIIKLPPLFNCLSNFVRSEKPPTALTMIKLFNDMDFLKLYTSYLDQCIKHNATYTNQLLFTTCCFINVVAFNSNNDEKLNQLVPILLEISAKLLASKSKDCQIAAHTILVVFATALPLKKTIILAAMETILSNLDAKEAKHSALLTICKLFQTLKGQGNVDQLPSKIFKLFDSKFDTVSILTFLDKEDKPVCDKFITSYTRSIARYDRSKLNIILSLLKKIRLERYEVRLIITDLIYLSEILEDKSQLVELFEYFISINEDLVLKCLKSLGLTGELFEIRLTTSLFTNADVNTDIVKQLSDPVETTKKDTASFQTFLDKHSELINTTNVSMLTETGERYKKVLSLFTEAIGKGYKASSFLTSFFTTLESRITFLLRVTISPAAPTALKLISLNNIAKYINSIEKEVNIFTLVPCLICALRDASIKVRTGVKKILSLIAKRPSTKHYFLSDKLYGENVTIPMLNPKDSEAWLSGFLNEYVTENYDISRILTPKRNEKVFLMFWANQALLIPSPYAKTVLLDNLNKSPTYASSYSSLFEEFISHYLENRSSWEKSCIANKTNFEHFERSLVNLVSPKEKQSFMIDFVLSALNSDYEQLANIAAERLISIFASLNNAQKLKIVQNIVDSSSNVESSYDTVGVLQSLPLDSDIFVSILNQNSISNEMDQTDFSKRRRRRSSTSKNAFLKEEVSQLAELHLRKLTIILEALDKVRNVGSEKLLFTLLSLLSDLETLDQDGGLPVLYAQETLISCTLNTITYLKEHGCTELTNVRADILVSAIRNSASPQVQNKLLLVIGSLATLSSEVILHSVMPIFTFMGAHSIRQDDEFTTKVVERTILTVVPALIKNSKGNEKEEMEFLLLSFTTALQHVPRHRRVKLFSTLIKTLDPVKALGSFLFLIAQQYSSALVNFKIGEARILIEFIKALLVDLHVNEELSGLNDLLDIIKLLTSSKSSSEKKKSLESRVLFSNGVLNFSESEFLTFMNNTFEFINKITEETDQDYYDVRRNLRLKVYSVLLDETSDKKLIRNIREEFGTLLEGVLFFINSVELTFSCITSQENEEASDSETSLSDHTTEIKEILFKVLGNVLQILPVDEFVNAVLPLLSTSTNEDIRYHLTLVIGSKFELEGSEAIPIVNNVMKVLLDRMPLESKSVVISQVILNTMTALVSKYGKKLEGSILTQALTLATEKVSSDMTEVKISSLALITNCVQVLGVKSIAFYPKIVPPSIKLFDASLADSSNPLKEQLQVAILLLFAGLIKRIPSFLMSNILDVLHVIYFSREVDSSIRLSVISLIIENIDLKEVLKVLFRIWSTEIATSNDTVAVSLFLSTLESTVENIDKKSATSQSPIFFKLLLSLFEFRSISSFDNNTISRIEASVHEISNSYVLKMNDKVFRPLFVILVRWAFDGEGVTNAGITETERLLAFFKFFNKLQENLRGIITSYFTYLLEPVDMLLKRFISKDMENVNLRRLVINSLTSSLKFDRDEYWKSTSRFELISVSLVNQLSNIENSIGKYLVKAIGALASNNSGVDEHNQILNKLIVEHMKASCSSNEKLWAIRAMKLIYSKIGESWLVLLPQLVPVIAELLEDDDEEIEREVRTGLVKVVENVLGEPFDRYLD

Assays:
[1] = biological target: T1, Nan1-FLAG (S. cerevisiae) (UniProt Q02931); assay: affinity purification with mass spectrometry; only Nan1-FLAG and Utp10 co-expressed in SF21 cells (bacmid K1999); one-step anti-FLAG purification, FLAG peptide elution; SDS-PAGE and MS
T1 sequence: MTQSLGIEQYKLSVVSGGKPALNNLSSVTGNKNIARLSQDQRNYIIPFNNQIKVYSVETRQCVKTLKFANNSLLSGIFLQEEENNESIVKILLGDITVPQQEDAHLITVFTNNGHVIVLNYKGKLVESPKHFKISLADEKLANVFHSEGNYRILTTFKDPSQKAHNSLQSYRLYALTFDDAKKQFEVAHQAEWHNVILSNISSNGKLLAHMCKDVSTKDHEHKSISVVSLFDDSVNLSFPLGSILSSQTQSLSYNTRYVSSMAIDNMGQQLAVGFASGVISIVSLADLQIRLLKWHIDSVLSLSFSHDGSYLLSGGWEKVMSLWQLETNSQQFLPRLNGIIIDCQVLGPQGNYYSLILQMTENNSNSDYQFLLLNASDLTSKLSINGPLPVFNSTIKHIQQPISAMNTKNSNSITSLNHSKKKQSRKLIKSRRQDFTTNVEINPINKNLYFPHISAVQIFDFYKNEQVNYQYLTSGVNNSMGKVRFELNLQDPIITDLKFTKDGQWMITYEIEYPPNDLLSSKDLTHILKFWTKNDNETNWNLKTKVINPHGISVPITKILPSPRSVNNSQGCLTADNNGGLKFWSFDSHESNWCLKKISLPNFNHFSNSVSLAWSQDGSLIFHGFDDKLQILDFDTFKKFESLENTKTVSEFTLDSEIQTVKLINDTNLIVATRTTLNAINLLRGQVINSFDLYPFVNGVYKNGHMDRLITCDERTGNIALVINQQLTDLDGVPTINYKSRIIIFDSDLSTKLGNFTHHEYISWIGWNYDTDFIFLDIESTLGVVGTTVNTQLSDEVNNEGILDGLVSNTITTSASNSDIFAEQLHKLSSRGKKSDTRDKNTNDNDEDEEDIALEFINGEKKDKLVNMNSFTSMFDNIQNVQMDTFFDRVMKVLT

[2] = biological target: T2, Nan1-HA (S. cerevisiae) (UniProt Q02931); assay: affinity purification with mass spectrometry; bacmid K2000 (all seven tUTP candidates); two-step: anti-FLAG eluate (Utp15-FLAG) purified again on anti-HA affinity matrix with Nan1-HA as bait, HA peptide elution; SDS-PAGE, Coomassie, MS of bands
T2 sequence: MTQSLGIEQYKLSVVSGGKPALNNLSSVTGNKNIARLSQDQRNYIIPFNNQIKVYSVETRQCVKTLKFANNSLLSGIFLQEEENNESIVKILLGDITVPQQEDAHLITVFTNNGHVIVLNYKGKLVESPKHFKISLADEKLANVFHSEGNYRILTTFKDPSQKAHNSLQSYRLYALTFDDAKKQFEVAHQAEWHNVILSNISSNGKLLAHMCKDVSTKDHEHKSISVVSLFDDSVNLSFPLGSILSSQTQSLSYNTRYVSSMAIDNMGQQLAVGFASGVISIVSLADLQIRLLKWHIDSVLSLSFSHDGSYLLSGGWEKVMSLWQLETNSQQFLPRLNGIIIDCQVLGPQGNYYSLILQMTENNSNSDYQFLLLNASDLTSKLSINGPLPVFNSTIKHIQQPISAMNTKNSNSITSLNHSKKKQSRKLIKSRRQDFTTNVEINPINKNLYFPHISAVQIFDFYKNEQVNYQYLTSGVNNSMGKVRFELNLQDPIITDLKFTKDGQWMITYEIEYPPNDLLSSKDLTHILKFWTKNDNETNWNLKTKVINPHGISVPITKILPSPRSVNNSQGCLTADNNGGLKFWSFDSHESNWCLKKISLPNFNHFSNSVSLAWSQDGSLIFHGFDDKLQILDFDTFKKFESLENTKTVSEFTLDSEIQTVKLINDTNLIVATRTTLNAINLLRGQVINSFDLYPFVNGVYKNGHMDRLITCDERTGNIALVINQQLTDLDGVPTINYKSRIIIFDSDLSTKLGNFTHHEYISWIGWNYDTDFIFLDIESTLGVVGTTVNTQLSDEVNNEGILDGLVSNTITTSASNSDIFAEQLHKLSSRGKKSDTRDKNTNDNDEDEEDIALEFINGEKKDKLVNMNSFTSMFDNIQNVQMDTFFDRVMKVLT

binding [1]: binds
binding [2]: binds
Substance: Utp10 (from UniProt P42945 1-1769)

These are yes or no findings as the source states them, for the method shown. In cells and extracts the contact can be indirect. Here binding means that the protein was enriched with, or labelled near, the bait; the list need not be complete. Where a sequence is shown, tags or fusion partners need not be part of it.
